The source of these data is paper doi:10.1101/2024.02.07.579305.

By UniProt entry, the sequences of proteins in these tests, tags left out.
UniProt Q96N11: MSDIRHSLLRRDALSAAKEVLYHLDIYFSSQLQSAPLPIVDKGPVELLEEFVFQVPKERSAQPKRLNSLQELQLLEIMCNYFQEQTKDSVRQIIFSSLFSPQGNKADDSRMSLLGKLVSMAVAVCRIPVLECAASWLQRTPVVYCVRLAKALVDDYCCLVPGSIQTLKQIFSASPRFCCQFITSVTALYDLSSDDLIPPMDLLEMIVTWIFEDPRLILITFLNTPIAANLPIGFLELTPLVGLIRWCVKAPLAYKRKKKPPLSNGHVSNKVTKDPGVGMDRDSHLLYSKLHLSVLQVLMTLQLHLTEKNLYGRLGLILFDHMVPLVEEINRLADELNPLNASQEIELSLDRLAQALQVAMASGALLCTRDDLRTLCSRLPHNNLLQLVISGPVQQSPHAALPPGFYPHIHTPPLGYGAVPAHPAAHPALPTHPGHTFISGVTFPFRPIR
UniProt Q9NVR2: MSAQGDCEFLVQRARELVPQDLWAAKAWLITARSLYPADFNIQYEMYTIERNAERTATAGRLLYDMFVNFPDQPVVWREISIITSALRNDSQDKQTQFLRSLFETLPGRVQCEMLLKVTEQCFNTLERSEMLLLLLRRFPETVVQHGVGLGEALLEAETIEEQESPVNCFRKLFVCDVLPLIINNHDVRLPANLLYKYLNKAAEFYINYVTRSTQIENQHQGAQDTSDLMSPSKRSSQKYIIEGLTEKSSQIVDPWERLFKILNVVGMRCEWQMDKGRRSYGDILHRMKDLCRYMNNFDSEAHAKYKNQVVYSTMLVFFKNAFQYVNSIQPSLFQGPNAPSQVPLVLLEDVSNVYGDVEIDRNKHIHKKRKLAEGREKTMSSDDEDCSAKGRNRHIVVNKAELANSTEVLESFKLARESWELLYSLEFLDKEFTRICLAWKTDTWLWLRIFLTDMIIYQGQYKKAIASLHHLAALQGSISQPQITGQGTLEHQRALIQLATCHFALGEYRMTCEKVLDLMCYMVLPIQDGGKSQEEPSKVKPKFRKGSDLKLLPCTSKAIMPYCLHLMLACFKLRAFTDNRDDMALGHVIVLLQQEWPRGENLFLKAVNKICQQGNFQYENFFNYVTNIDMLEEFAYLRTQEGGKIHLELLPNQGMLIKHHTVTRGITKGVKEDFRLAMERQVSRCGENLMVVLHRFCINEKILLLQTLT
UniProt Q9NVM9: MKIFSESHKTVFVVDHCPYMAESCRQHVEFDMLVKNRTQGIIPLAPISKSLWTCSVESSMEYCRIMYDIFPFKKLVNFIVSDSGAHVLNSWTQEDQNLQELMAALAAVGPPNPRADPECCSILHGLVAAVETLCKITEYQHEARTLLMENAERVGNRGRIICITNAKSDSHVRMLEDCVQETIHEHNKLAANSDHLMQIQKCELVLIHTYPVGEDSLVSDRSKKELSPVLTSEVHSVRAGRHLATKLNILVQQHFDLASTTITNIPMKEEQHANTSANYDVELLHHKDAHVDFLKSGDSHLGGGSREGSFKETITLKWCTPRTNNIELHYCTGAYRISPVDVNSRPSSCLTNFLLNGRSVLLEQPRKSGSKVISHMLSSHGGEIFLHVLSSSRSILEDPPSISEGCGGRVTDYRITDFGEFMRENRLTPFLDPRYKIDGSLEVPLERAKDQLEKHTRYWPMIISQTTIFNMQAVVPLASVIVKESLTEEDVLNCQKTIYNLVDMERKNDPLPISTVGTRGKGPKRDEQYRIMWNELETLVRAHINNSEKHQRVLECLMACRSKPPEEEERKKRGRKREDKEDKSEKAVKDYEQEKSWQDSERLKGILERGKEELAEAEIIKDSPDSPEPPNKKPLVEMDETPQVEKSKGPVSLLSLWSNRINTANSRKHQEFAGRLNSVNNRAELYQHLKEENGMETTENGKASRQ
UniProt Q96SY0: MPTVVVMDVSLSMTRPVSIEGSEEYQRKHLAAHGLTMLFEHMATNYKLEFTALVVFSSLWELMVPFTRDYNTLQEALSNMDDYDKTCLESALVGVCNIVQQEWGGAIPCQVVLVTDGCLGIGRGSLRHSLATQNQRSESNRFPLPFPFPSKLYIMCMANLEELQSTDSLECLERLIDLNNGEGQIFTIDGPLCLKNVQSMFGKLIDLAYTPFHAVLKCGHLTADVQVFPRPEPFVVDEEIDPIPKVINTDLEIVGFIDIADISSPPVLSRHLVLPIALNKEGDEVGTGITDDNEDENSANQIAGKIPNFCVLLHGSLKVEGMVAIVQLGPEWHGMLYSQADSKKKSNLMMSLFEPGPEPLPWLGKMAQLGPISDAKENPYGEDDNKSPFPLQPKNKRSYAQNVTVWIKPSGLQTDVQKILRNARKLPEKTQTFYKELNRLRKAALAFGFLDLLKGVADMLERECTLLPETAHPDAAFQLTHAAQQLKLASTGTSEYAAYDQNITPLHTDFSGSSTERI

The target in assay [1] is flag-tagged full-length INTS15 (UniProt Q96N11). In words: affinity purification with mass spectrometry.
For assay [2], the target named is flag-tagged full-length INTS10 (UniProt Q9NVR2). As to the kind of experiment: affinity purification with mass spectrometry.

No constants are given. Whether binding was seen depends on the method and setting. In cells and extracts the contact can be indirect. A yes stands for co-enrichment or nearness to the bait. Other partners may have been found.

Take “INTS10 (endogenous, 293T) (from UniProt Q9NVR2 1-710)”: in assay [1], the binding entry is on record as “binds”. “INTS13 (endogenous, 293T) (from UniProt Q9NVM9 1-706)”: the binding entry in assay [2] and in assay [1] was “binds” each time. For the substance “INTS14 (endogenous, 293T) (from UniProt Q96SY0 1-518)”, the binding entry in assay [1] was “binds”. Take “INTS15 (endogenous, 293T) (from UniProt Q96N11 1-449)”: the binding entry in assay [2] is on record as “binds”.
